Data published in paper PMC10015162.
No constants are given. Whether binding was seen depends on the method and setting. Binding seen in cells or lysates may run through a third protein. Here binding means that the protein was enriched with, or labelled near, the bait; the list need not be complete.

The chains behind the UniProt entries cited, without tags or fusion partners. Where a name states a change or a piece, a line headed by the entry shows the natural chain unless it says otherwise. Residues count along the entry.
UniProt Q39011: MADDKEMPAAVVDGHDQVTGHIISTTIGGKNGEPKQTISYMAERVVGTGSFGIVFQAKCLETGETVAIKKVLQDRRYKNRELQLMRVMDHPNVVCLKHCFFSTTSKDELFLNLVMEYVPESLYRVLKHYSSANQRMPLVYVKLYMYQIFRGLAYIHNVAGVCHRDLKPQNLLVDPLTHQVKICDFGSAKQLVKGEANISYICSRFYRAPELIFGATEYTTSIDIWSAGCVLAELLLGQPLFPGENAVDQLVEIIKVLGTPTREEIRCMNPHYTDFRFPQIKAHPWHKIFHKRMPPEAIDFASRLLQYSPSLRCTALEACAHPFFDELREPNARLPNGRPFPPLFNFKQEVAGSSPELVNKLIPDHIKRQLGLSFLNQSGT
UniProt P93025: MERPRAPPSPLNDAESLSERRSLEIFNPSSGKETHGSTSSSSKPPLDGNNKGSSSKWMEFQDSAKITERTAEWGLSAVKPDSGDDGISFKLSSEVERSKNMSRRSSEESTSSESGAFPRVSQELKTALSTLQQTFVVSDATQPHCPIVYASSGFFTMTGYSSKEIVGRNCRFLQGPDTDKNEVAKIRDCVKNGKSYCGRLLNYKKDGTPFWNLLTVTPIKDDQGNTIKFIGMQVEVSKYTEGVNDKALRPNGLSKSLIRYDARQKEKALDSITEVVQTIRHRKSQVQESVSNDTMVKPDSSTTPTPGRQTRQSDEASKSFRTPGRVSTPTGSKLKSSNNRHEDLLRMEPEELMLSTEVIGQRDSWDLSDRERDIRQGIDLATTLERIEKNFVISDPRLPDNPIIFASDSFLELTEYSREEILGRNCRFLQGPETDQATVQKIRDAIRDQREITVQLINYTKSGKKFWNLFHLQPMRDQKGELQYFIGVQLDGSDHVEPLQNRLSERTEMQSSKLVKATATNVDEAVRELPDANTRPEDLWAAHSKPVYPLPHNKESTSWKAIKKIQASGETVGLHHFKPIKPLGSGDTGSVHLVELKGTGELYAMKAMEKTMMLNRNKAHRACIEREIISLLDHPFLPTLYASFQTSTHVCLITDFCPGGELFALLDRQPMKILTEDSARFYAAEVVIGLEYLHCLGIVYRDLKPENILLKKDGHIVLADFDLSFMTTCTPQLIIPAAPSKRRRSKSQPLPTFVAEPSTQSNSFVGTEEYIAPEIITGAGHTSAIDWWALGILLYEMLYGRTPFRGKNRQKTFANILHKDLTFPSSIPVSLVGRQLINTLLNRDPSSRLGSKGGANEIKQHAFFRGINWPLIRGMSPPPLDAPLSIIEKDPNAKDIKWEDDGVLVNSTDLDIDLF
UniProt Q3E8W4, residues 28-858: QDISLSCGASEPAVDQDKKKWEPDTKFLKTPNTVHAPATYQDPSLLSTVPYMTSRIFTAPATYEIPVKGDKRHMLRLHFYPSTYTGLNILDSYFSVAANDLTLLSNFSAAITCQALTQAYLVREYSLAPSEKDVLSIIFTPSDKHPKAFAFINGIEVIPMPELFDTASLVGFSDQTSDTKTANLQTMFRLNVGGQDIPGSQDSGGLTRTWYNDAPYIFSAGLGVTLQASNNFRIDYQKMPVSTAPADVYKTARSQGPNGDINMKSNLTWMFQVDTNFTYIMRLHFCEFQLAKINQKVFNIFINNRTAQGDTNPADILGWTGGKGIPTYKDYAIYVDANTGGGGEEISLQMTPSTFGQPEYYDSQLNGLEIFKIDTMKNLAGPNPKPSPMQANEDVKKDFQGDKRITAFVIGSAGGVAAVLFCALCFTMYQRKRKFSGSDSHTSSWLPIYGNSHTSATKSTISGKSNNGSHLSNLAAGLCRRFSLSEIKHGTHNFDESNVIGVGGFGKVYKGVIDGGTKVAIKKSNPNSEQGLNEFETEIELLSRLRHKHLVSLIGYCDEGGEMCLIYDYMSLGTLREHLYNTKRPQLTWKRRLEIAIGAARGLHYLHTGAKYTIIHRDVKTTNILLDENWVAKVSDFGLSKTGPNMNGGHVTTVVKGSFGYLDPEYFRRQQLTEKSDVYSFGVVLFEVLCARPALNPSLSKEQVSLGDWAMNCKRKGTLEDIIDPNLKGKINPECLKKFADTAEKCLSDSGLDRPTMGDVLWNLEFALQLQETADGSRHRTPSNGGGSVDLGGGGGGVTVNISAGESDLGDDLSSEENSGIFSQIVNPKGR
UniProt Q9LX66, residues 25-830: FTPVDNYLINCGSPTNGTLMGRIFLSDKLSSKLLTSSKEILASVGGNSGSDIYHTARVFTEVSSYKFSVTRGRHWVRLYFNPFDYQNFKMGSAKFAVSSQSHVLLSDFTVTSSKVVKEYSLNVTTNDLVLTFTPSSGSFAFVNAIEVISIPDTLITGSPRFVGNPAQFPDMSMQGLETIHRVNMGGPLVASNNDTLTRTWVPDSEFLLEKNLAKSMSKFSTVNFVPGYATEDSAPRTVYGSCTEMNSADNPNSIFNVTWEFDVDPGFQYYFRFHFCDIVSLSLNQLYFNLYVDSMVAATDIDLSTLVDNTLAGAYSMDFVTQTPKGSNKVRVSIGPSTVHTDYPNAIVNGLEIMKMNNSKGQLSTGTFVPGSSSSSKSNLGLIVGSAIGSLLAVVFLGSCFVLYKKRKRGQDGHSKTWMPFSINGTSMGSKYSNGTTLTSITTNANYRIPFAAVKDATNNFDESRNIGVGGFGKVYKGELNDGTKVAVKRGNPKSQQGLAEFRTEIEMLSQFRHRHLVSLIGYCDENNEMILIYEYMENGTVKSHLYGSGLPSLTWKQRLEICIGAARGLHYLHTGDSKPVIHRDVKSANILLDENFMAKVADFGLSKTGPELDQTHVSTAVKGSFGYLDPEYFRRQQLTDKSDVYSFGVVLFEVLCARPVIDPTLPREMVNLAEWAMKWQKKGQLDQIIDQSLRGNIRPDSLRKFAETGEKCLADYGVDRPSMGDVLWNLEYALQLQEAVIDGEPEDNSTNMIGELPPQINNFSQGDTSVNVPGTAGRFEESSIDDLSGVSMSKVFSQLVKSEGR
UniProt Q9C8G3: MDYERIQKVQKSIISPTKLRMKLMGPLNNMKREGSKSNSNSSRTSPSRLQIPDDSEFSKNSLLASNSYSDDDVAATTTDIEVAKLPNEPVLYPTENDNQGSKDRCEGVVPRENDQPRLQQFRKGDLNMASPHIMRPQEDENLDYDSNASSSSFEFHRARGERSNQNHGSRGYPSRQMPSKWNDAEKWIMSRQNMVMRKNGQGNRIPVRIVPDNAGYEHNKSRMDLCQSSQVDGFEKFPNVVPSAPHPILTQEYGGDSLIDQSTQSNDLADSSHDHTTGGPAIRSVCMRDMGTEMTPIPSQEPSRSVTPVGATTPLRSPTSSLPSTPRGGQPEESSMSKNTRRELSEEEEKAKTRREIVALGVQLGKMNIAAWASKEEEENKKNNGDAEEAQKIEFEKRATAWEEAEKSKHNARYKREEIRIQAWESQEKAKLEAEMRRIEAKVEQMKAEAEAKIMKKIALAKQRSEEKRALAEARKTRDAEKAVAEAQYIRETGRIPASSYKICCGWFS
UniProt F4IRZ1: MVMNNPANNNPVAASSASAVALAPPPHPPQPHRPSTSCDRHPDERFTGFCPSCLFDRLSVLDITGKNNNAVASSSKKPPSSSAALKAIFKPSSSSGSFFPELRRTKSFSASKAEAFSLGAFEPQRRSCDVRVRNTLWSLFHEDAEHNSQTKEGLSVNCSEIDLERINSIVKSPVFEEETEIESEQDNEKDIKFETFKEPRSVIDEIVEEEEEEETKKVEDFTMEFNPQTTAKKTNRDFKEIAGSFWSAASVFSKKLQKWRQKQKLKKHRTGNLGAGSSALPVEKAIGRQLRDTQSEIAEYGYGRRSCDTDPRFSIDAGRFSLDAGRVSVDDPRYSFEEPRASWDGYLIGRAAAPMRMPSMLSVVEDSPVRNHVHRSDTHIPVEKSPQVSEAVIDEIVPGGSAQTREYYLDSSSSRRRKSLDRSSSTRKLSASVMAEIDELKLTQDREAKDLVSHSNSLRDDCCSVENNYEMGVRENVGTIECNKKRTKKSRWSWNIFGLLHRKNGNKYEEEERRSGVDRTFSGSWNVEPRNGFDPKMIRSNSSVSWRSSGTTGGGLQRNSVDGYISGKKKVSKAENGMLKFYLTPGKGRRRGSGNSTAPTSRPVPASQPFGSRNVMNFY
UniProt O65655: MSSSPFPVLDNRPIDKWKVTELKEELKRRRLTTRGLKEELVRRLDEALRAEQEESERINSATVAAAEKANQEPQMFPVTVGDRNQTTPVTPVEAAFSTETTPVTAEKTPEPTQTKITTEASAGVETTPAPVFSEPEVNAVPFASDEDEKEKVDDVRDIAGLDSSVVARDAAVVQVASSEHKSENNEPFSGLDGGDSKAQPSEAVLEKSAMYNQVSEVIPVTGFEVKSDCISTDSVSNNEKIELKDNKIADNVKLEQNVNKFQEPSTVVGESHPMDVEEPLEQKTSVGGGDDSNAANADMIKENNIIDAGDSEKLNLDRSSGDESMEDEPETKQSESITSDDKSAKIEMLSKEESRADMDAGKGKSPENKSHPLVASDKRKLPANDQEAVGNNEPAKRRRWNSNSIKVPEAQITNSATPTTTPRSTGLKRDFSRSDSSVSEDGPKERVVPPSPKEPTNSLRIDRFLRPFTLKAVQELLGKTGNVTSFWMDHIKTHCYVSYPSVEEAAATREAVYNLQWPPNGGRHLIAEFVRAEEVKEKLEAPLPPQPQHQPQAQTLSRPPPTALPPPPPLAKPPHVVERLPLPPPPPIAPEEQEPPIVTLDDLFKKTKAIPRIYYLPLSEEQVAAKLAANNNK
UniProt Q9SR05, residues 27-850: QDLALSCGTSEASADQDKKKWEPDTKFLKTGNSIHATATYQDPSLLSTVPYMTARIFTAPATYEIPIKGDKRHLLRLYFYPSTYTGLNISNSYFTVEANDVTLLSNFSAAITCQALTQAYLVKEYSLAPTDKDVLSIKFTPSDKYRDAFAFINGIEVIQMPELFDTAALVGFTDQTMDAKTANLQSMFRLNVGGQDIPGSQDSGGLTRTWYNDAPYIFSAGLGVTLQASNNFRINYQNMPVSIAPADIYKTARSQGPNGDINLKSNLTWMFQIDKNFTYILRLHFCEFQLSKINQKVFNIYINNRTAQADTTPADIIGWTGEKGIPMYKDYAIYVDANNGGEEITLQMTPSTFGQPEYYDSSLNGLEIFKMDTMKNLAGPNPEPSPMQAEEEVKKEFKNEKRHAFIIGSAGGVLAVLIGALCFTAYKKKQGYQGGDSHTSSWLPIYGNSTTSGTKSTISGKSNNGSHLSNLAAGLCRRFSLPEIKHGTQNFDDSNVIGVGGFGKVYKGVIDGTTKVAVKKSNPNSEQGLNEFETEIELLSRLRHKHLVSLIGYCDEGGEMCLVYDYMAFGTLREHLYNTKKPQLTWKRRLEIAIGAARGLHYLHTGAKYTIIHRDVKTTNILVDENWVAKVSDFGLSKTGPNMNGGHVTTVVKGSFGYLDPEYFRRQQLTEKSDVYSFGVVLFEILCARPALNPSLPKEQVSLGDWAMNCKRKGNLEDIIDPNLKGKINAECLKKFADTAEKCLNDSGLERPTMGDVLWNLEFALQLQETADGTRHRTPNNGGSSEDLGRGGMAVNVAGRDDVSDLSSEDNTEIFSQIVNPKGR

Target: BIN2-YFP-TbID (full-length BIN2 fused with YFP and TurboID), in transgenic Arabidopsis (Arabidopsis thaliana) (UniProt Q39011)
Assay: proximity labelling; TbPL-MS: transgenic Arabidopsis seedlings with BIN2-YFP-TbID against YFP-YFP-TbID control, 14N/15N labelling, 50 µM biotin for 3 h, desalting, streptavidin beads, on-bead digestion, LC-MS/MS; BIN2-proximal: ratio >=3 in at least three of four replicates

binding | Molecule
binds | phototropin 2 (from UniProt P93025 1-915)
binds | ANX2 receptor kinase (from UniProt Q3E8W4 28-858)
binds | BRASSINOSTEROID-… KINASE3 (from UniProt Q8W4L3 1-489)
binds | HERCULES (HERK1) receptor kinase (from UniProt Q9LX66 25-830)
binds | At1g30320 (from UniProt Q9C8G3)
binds | OCTOPUS LIKE 2 (from UniProt F4IRZ1)

Continued, molecule first:

Molecule | binding
SUGAR … 8 (mitogen-activated protein kinase kinase kinase) (from UniProt Q9C9U5 1-1030) (enzyme) | binds
ACINUS (from UniProt O65655) | binds
ANXUR1 receptor kinase (from UniProt Q9SR05 27-850) | binds
TOPLESS (protein, UniProt Q94AI7 1-1131) MSSLSRELVFLILQFLDEEKFKETVHKLEQESGFFFNMKYFEDEVHNGNWDEVEKYLSGFTKVDDNRYSMKIFFEIRKQKYLEALDKHDRPKAVDILVKDLKVFSTFNEELFKEITQLLTLENFRENEQLSKYGDTKSARAIMLVELKKLIEANPLFRDKLQFPTLRNSRLRTLINQSLNWQHQLCKNPRPNPDIKTLFVDHSCGPPNGARAPSPVNNPLLGGIPKAGGFPPLGAHGPFQPTASPVPTPLAGWMSSPSSVPHPAVSAGAIALGGPSIPAALKHPRTPPTNASLDYPSADSEHVSKRTRPMGISDEVNLGVNMLPMSFSGQAHGHSPAFKAPDDLPKTVARTLSQGSSPMSMDFHPIKQTLLLVGTNVGDIGLWEVGSRERLVQKTFKVWDLSKCSMPLQAALVKEPVVSVNRVIWSPDGSLFGVAYSRHIVQLYSYHGGEDMRQHLEIDAHVGGVNDISFSTPNKQLCVITCGDDKTIKVWDAATGVKRHTFEGHEAPVYSVCPHYKENIQFIFSTALDGKIKAWLYDNMGSRVDYDAPGRWCTTMAYSADGTRLFSCGTSKDGESFIVEWNESEGAVKRTYQGFHKRSLGVVQFDTTKNRYLAAGDDFSIKFWDMDAVQLLTAIDGDGGLQASPRIRFNKEGSLLAVSGNENVIKIMANSDGLRLLHTFENISSESSKPAINSIAAAAAAAATSAGHADRSANVVSIQGMNGDSRNMVDVKPVITEESNDKSKIWKLTEVSEPSQCRSLRLPENLRVAKISRLIFTNSGNAILALASNAIHLLWKWQRNERNATGKATASLPPQQWQPASGILMTNDVAETNPEEAVPCFALSKNDSYVMSASGGKISLFNMMTFKTMATFMPPPPAATFLAFHPQDNNIIAIGMDDSTIQIYNVRVDEVKSKLKGHSKRITGLAFSNVLNVLVSSGADAQLCVWNTDGWEKQRSKVLPLPQGRPNSAPSDTRVQFHQDQAHFLVVHETQLAIYETTKLECMKQWAVRESLAPITHATFSCDSQLVYASFMDATVCVFSSANLRLRCRVNPSAYLPASLSNSNVHPLVIAAHPQEPNMFAVGLSDGGVHIFEPLESEGKWGVAPPAENGSASGAPTAPSVGASASDQPQR | binds
